# Laboratory results reported in PubChem BioAssay AID2685 (National Center for Advancing Translational Sciences (NCATS), 2010).
# About 2,100 (0.66%) of roughly 320,000 compounds were called active. This list was built around the results that the source calls inconclusive (neither active nor inactive); the mix of calls is not that of the screen. Calls follow the shape of the dose curve; as a rule, active = well fitted inhibition curve with a large enough effect in the signal ratio, with a control signal flat (not every such curve was filed as active); inconclusive = small, poorly fitted or top-dose-only effect, or effect the other way, or a change in a side signal; inactive = flat fitted curve, though single readings scatter; the % refers to the signal ratio. Potencies beside an inconclusive call are fits to weak or partial responses and may not hold up.
# Assay: qHTS Assay for Lipid Storage Modulators in Drosophila S3 Cells
# Details: BODIPY lipid droplet fluorescence, 18-24 h, cells fed with added oleic acid; lipid storage change, negative = inhibition: at 46.1 µM (top of the series) unless noted
# Summary of the method: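 Drosophila S3 cells got compounds at several concentrations plus oleic acid (400 uM solution). Laser-scanning cytometry with 488 nm excitation read lipid droplets at 500-530 nm and cells at 575-640 nm. Percent activity was relative to 20 uM Triacsin C.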
# % is scaled to controls: 0 for no effect and ±100 for the full control effect; potency is read from the fitted curve at half-maximal effect.
SMILES,"lipid storage change, negative = inhibition",Potency,outcome
CCOC(=O)CCC(=O)Nc1cc(S(=O)(=O)N2CCOCC2)ccc1N1CCCCC1,inconclusive: 25.9%,,
O=C(COC(=O)Cn1cnc2ccccc2c1=O)Nc1ccc(Cl)c(C(F)(F)F)c1,,"inconclusive: 5.8 µM [activator, full curve]",
NC(=O)C1(c2ccccc2)CCOCC1,,"inconclusive: 10.3 µM [falling, partial curve]",
Cc1ccc(C)c(Oc2coc3cc(OCC(=O)Nc4ccccc4C(C)C)ccc3c2=O)c1,inconclusive: -41.3%,,
Cc1ccccc1Cn1nc(C)c(NC(=O)c2cc(CC(C)C)on2)c1C,inconclusive: 6.73%,,
COCCn1c(-c2ccc(NC(C)=O)cc2)nc2c1c(=O)[nH]c(=O)n2CC(C)C,,"inconclusive: 6.51 µM [falling, single point]",
CCc1cc(/C(Cc2ccccn2)=N\O)c(O)cc1O,inconclusive: -11.5%,,
Cn1c(CSCc2ccc(F)cc2)nnc1SCC(=O)Nc1nccs1,,"inconclusive: 11.6 µM [activator, single point]",
CCCN(CC(=O)Nc1ccc(Cl)cc1Cl)C(=O)/C=C/c1ccco1,inconclusive: -23.7%,,
COc1ccc(N=C2C(=Nc3ccc(OC)cc3)N(c3ccc(OC)cc3)C(=S)N2c2ccccc2)cc1,,"inconclusive: 3.66 µM [falling, full curve]",
CC1(C(=O)O)CCC(C(=O)Nc2ccc(S(N)(=O)=O)cc2)C1(C)C (configuration not stated),,"inconclusive: 0.146 µM [activator, full curve, poor fit]",
O=C(Nc1ccnn1C1CCN(C(=O)CCc2ccc(F)cc2)CC1)C1CCOC1 (configuration not stated),inconclusive: -16.8%,,
Cc1cccnc1NC(=S)Nc1ccc(Br)cc1Cl,inconclusive: 15.1%,,
CCOc1ccc(CCNC(=O)c2cc(C)nc3ccccc23)cc1OCC,,,inactive [at 46.1 µM]
COc1ccc(NC(=O)CN2CCN(CC(=O)Nc3ccccc3F)CC2)cc1OC,inconclusive: 32.6%,,
COc1ccccc1C(=O)Nc1c[nH]c(=O)[nH]c1=O,,"inconclusive: 20.6 µM [falling, single point]",
Cc1nc(-c2ccc(NC(=O)Cc3ccccc3)cc2)cs1,inconclusive: -88.8%,,
N/C(=N\OC(=O)Cc1ccc(Cl)cc1)c1cccnc1,inconclusive: -37.1%,,
Cc1ccc2[nH]c(C)c(CCNC(=O)c3c(N)no[n+]3[O-])c2c1,inconclusive: -9.55%,,
COc1ccccc1N(Cc1ccccc1)S(=O)(=O)c1cccc(C(=O)Nc2cc(C)ccn2)c1,inconclusive: -40.6%,,
C#CCOCCOCCOCCNc1nc(N2CCN(C(=O)CCCCCCCCCCNC(=O)[C@H]([C@@H](C)CC)n3cc(CCCCCN)nn3)CC2)nc(N2CCN(C(=O)CCCCCCCCCCNC(=O)[C@H](CO)n3cc(CCCCCN)nn3)CC2)n1,,"inconclusive: 0.0052 µM [falling, full curve, poor fit]",
N#Cc1c(SCC(=O)OCc2ccccc2)nsc1SCC(=O)OCc1ccccc1,inconclusive: 1.9%,,
CCOc1ccc(N(CC(=O)O)S(=O)(=O)c2ccc(F)cc2)cc1,inconclusive: -98.1%,,
Cc1nc2ccccn2c1C(=O)CSc1ccc(Cl)cc1Cl,inconclusive: 18.2%,,

SMILES,"lipid storage change, negative = inhibition",Potency,outcome
O=C1NC[C@@H](Cc2ccc(O)cc2)N(CCc2cccc(F)c2)C1=O,inconclusive: -7.15%,,
CCOc1ccc(NC(=O)N2CCC(c3ccc(C)cc3)C2)cc1 (configuration not stated),inconclusive: 0.479%,,
C=CCn1c(SCc2ccc(OC)cc2)nnc1-c1cccnc1,,"inconclusive: 3.26 µM [activator, full curve]",
O=C(/C=C/c1ccccc1)N/C(=C/c1ccccc1)C(=O)Nc1ccccc1O,inconclusive: 373%,,
Cc1cc2c(c(=O)o1)C1(C(=O)N(C)c3ccccc31)C(C#N)=C(N)O2 (configuration not stated),inconclusive: 38.4%,,
CCOC(=O)C(CSCC(=O)c1ccc(Cl)cc1)NC(=O)OC(C)(C)C (configuration not stated),inconclusive: -63.7%,,
OC(c1ccccc1)C1CN(Cc2ccccc2)CCC1(O)c1ccccc1 (configuration not stated),inconclusive: 18.3%,,
CCN(CC)S(=O)(=O)c1cc(NC(=O)COC(=O)C2CCC2)ccc1C,inconclusive: -3.49%,,
O=C(CCCC(=O)OCC(=O)NC1CCCC1)Nc1ccccn1,,"inconclusive: 7.31 µM [falling, full curve, poor fit]",
O=C(NCc1ccccc1Cl)c1cc(C(=O)C2CC2)c[nH]1,inconclusive: -25.2%,,
COc1ccc(NC(=O)C(=O)NCC2CCCN2S(=O)(=O)c2cccs2)cc1 (configuration not stated),inconclusive: -75%,,
CCC(=O)Nc1ccc(-c2nnc(SCC(=O)N3CCCCC3)n2C)cc1,inconclusive: -92%,,
CCN(CC)S(=O)(=O)c1ccc(C)c(NC(=O)CNc2cccc(S(=O)(=O)N3CCOCC3)c2)c1,,"inconclusive: 8.2 µM [activator, partial curve]",
COc1ccccc1N1CCN(C(=O)C2CCC(CNS(=O)(=O)c3ccc(NC(C)=O)cc3)CC2)CC1 (configuration not stated),,"inconclusive: 0.103 µM [activator, full curve]",
CCOC(=O)CSc1nnc2c3ccccc3n(C)c2n1,inconclusive: -27.7%,,
CCOC(=O)c1ccc2c(c1)nc(SCC(=O)N1CCCCC1)n2CC,inconclusive: 12.7%,,
O=C(COc1ccc(Cl)cc1Cl)NCCCn1ccnc1,,"inconclusive: 0.146 µM [activator, full curve, poor fit]",
O=C(NNC(=S)Nc1ccccc1Cl)c1ccccc1,,"inconclusive: 29.1 µM [activator, single point]",
COc1cccc(NC(=O)Cn2nnc(C(=O)NCCc3ccccc3)c2N)c1,,active: 20.6 µM,
COc1cccc(COC(=O)C2CCN(S(=O)(=O)c3ccc(Cl)cc3)CC2)c1OC,inconclusive: 24.6%,,
CCOC(=O)C1C(=O)N(C(=O)c2ccc(OC)cc2)CC1c1ccccc1 (configuration not stated),inconclusive: 4.83%,,
Cc1ccc(Sc2ncccc2COC(=O)Nc2ccccc2)cc1,,"inconclusive: 9.2 µM [falling, partial curve, poor fit]",
COc1cc(S(=O)(=O)Nc2ccc(C)cc2)ccc1N=Cc1c(C)[nH]n(-c2ccc(C)cc2)c1=O,inconclusive: -15.9%,,

# Taken from above:
# Entry for O=C(COC(=O)Cn1cnc2ccccc2c1=O)Nc1ccc(Cl)c(C(F)(F)F)c1 under Potency: inconclusive: 5.8 µM [activator, full curve]
# Entry for N/C(=N\OC(=O)Cc1ccc(Cl)cc1)c1cccnc1 under lipid storage change, negative = inhibition: inconclusive: -37.1%
# Entry for Cn1c(CSCc2ccc(F)cc2)nnc1SCC(=O)Nc1nccs1 under Potency: inconclusive: 11.6 µM [activator, single point]
